{"source": "patent US10758639B2", "about": "“Methods for the treatment of peri-implantitis” (POLYPID LTD., priority 2014, dated 2020)", "origin": "cited, not measured here", "system": "S. aureus", "settings": "for S. aureus; cited from earlier work", "note": "For at least one compound, name, drawing or mass did not settle the structure.", "data": [{"smiles": "C[C@H]1c2cccc(O)c2C(=O)C2=C(O)[C@]3(O)C(=O)C(C(N)=O)=C(O)[C@@H](N(C)C)[C@@H]3[C@@H](O)[C@@H]21", "note": "[Doxycycline]", "values": [{"measurement": "minimal inhibitory concentrations (MIC)", "result": "≥ 0.1", "unit": "µg/mL"}]}]}
